# Values quoted from earlier work, collected in patent US20250073302A1, “CYCLIC PEPTIDES AS PROTEASOME STIMULATORS” (Purdue Research Foundation, priority 2023, published 2025).
# At least one compound was matched to its structure with a doubt left.
# System: proteasome
# Details: background statement; cited from earlier work
structure (smiles),measurement,value
C=C(C)[C@@H]1CC[C@]2(C(=O)O)CC[C@]3(C)[C@H](CC[C@@H]4[C@@]5(C)CC[C@H](O)C(C)(C)[C@@H]5CC[C@]43C)[C@@H]12 [betulinic acid],activity in cell-based assays (in words),inactivity in cell-based assays
